In this test the test system is B6C3F1 mice, B16 melanoma ip, median survival T/C. Description: NCI In Vivo Anticancer Drug Screen. Data for tumor model B16 Melanoma (intraperitoneal) in B6C3F1 mice. The settings on record: T/C endpoint: median survival time, higher T/C = longer survival. Summed up: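 Values are T/C ratios: the measurement in treated animals divided by that in vehicle-treated controls, using survival or tumor size in mice carrying transplantable tumors.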

Where [1] appears, read: dose: 100.0 mg/kg/injection, schedule: Q01DX009 (ip), vehicle: water.
Where [2] appears, read: dose: 100.0 mg/kg/injection, schedule: Q01DX009 (ip), vehicle: distilled water + Tween-80.
[3] abbreviates: dose: 12.0 mg/kg/injection, schedule: Q01DX009 (ip), vehicle: saline with Tween-80.
[4] abbreviates: dose: 12.5 mg/kg/injection, schedule: Q01DX009 (ip), vehicle: saline with Tween-80.
Setting [5] is: dose: 50.0 mg/kg/injection, schedule: Q01DX009 (ip), vehicle: Klucel (hydroxypropylcellulose) (HPC).
[6] abbreviates: dose: 100.0 mg/kg/injection, schedule: Q01DX009 (ip), vehicle: Klucel (hydroxypropylcellulose) (HPC).
Where [7] appears, read: dose: 200.0 mg/kg/injection, schedule: Q01DX009 (ip), vehicle: Klucel (hydroxypropylcellulose) (HPC).
[8] abbreviates: dose: 50.0 mg/kg/injection, schedule: Q01DX009 (ip), vehicle: saline with Tween-80.
Setting [9] is: dose: 50.0 mg/kg/injection, schedule: Q01DX009 (ip), vehicle: saline.

The list shows only some results of the screen, not a fair sample: it gathers tests that were run many times, whatever their T/C, doses with no T/C, and many T/C values between a quarter and a half above the control. Other doses and runs of a compound stand elsewhere. T/C gives the treated animals as a percentage of the vehicle group. Some entries give survivors of the animals treated and no T/C: the source holds a T/C of zero for them, seemingly a mark for toxic or unscored doses. Some doses without a T/C left all or most animals alive at the check, yet need not have been tolerated: the source hardly ever lists a survival T/C far under the control, and the zero likely stands for such cases as well. Counts of survivors are from the toxicity check (mostly the fifth day) where no day follows; animals may have died later. Schedule codes are those of the source, read here as Q, the interval in days (D) or hours (H), X, the number of doses. Some entries were tested several times; the results are listed from low to high. Where survival is the endpoint, this PubChem deposit counts one and a half times the control or more as active, and values a quarter to a half above the control carry no call in these data; other NCI protocols may use other cut-offs. Signs of the kind (2×) count equal records among those shown. Some T/C values are followed by the survivors on the day toxicity was checked, most often the fifth; where none is given, no animal had died by that day.

For the compound `COC(=O)NC1C(C)OC(OC2C/C=C(/C)C3C=CC4C(OC5CC(OC6CC(OC7CC(O)C(O)C(C)O7)C(OC7CC(O)C(OC)C(C)O7)C(C)O6)C(O)C(C)O5)C(C)CC(C)C4C3(C)/C(O)=C3\C(=O)OC4(CC(C)C(CO)=CC4/C=C\2C)C3=O)CC1(C)[N+](=O)[O-]` (stereo not given), the T/C was 131 % of control (dose: 12.5 mg/kg/injection, schedule: Q01DX009 (ip), vehicle: water); 143 % of control (2×) (dose: 25.0 mg/kg/injection, schedule: Q01DX009 (ip), vehicle: water); 125, 128, 143 % of control (dose: 50.0 mg/kg/injection, schedule: Q01DX009 (ip), vehicle: water); 132 [9 of 10 alive] and 144 % of control under setting [1]. The survivor count by setting is: under setting [1], 8 of 9; (dose: 200.0 mg/kg/injection, schedule: Q01DX009 (ip), vehicle: water) 0 of 10.
Consider `NC1(C(=O)O)CCCc2ccc(N(CCCl)CCCl)cc21` (stereo not given), for which the T/C (dose: 5.0 mg/kg/injection, schedule: Q01DX009 (ip), vehicle: saline) is 125 % of control and the T/C (dose: 20.0 mg/kg/injection, schedule: Q01DX009 (ip), vehicle: saline with Tween-80) is 146 % of control. Under “dose: 40.0 mg/kg/injection, schedule: Q01DX009 (ip), vehicle: saline with Tween-80”, the survivor count is on record as 9 of 10.
As to `CC(=O)Oc1ccc2c3c1O[C@H]1[C@@H](OC(C)=O)C=C[C@H]4[C@@H](C2)N(C)CC[C@@]341`, the survivor count (dose: 256.0 mg/kg/injection, schedule: Q01DX009 (ip), vehicle: saline) is given as 0 of 5.
With `COc1cccc2c1C(=O)c1c(O)c3c(c(O)c1C2=O)C[C@@](O)(C(=O)CO)C[C@@H]3OC1CC(OC(C)=O)C(OC(C)=O)C(C)O1` (stereo not given in full), the T/C (dose: 3.12 mg/kg/injection, schedule: Q01DX009 (ip), vehicle: distilled water + Tween-80) is 149 % of control and the T/C (dose: 12.5 mg/kg/injection, schedule: Q01DX001 (ip), vehicle: distilled water + Tween-80) was 126 % of control. Further, the survivor count (dose: 12.5 mg/kg/injection, schedule: Q01DX009 (ip), vehicle: distilled water + Tween-80) is reported as 10 of 10; the survivor count (dose: 25.0 mg/kg/injection, schedule: Q01DX009 (ip), vehicle: distilled water + Tween-80) is 9 of 10; the survivor count (dose: 50.0 mg/kg/injection, schedule: Q01DX009 (ip), vehicle: distilled water + Tween-80) is given as 10 of 10; the survivor count (dose: 100.0 mg/kg/injection, schedule: Q01DX001 (ip), vehicle: distilled water + Tween-80) was 5 of 10 and 10 of 10; the survivor count under setting [2] was 9 of 10; the survivor count (dose: 200.0 mg/kg/injection, schedule: Q01DX001 (ip), vehicle: distilled water + Tween-80) is 4 of 10 and 10 of 10.
For `CC(=O)c1ccc([NH-])c([NH-])c1.[Cl][Pt+2][Cl]`, the T/C was 128 % of control (dose: 20.0 mg/kg/injection, schedule: Q01DX009 (ip), vehicle: distilled water + Tween-80); 128 % of control (dose: 40.0 mg/kg/injection, schedule: Q01DX009 (ip), vehicle: distilled water + Tween-80); 128 and 142 % of control (dose: 80.0 mg/kg/injection, schedule: Q01DX009 (ip), vehicle: distilled water + Tween-80); 132 % of control (dose: 160.0 mg/kg/injection, schedule: Q01DX009 (ip), vehicle: distilled water + Tween-80).
As to `Nc1nc(N)c2c(ccc3c2ccn3Cc2cccc([N+](=O)[O-])c2)n1`, the T/C was 125 % of control (dose: 3.12 mg/kg/injection, schedule: Q01DX009 (ip), vehicle: saline with Tween-80) and 146 % of control under setting [3]. For the same compound, the survivor count (dose: 6.25 mg/kg/injection, schedule: Q01DX009 (ip), vehicle: saline with Tween-80) is on record as 10 of 10; the survivor count under setting [3] is 10 of 10; the survivor count under setting [4] was 10 of 10; the survivor count (dose: 24.0 mg/kg/injection, schedule: Q01DX009 (ip), vehicle: saline with Tween-80) is reported as 10 of 10; the survivor count (dose: 25.0 mg/kg/injection, schedule: Q01DX009 (ip), vehicle: saline with Tween-80) is 8 of 10.
Consider `COc1cc2c(oc(=O)c3cc(C)cc(OC)c32)c2c(C3OC(C)C(O)C(C)(O)C3O)ccc(O)c12` (stereo not given), for which the survivor count by setting is: (dose: 1.5 mg/kg/injection, schedule: Q01DX009 (ip), vehicle: DMSO) 10 of 10; (dose: 3.0 mg/kg/injection, schedule: Q01DX009 (ip), vehicle: DMSO) 7 of 9. The T/C is 128 % of control (dose: 1.57 mg/kg/injection, schedule: Q01DX009 (ip), vehicle: DMSO); 125 % of control (dose: 3.13 mg/kg/injection, schedule: Q01DX009 (ip), vehicle: DMSO); 135 and 144 % of control (dose: 12.5 mg/kg/injection, schedule: Q01DX009 (ip), vehicle: DMSO); 110, 123 [8 of 10 alive], 135, 169 % of control (dose: 25.0 mg/kg/injection, schedule: Q01DX009 (ip), vehicle: DMSO).
As for `O=c1s[se]c2ccccc12`, under setting [5], the survivor count is 0 of 10.
With `COC(=O)NC1C(C)OC(OC2C/C=C(/C)C3C=CC4C(OC5CC(OC6CC(O)C(OC7CC(O)C(OC)C(C)O7)C(C)O6)C(O)C(C)O5)C(C)CC(C)C4C3(C)/C(O)=C3\C(=O)OC4(CC(C)C(CO)=CC4/C=C\2C)C3=O)CC1(C)[N+](=O)[O-]` (stereo not given), the T/C was 130 % of control under setting [5]; 126 and 142 % of control under setting [6]. Under setting [7], the survivor count is 7 of 10 and 8 of 10.
In the case of `O=C(O)C1CC(c2ccccc2)=NN1c1ccccc1` (stereo not given), the survivor count (dose: 400.0 mg/kg/injection, schedule: Q01DX009 (ip), vehicle: water) is 1 of 10.
As to `ClC1C(Cl)C(Cl)C(Cl)C(Cl)C1Cl` (stereo not given), the T/C under setting [4] was 131 % of control. The survivor count under setting [8] is 10 of 10.
With `CCOc1ccc(C(C)c2cc3c(cc2OC)OCO3)cc1` (stereo not given), the T/C under setting [2] is 129 % of control. Further, the survivor count (dose: 200.0 mg/kg/injection, schedule: Q01DX009 (ip), vehicle: distilled water + Tween-80) was 8 of 10 and the survivor count (dose: 400.0 mg/kg/injection, schedule: Q01DX009 (ip), vehicle: distilled water + Tween-80) is recorded as 3 of 10.
As for `ClC1(Cl)Cc2ccccc21`, the T/C is 146 % of control under setting [8] and 134 % of control (dose: 100.0 mg/kg/injection, schedule: Q01DX009 (ip), vehicle: saline with Tween-80). Also, the survivor count (dose: 200.0 mg/kg/injection, schedule: Q01DX009 (ip), vehicle: saline with Tween-80) is listed as 9 of 10 and the survivor count (dose: 400.0 mg/kg/injection, schedule: Q01DX009 (ip), vehicle: saline with Tween-80) was 3 of 10.
In the case of `Nc1nc(SCc2ccccc2Cl)c2ncn(C3OC(CO)C(O)C3O)c2n1` (stereo not given), the survivor count under setting [8] was 10 of 10.
With `CC(C)NC(=O)N(CCCCBr)N=O`, the T/C (dose: 25.0 mg/kg/injection, schedule: Q01DX009 (ip), vehicle: Klucel (hydroxypropylcellulose) (HPC)) was 125 % of control and the T/C under setting [5] was 138 % of control. Also, the survivor count is, setting by setting: under setting [6], 10 of 10; under setting [7], 10 of 10.
Take `O=c1[nH]cccc1O`: where the note is “dose: 512.0 mg/kg/injection, schedule: Q01DX009 (ip), vehicle: saline with Tween-80”, the survivor count was 7 of 10.
`OCCN1CCN(CC/C=C2/c3ccccc3Sc3ccc(Cl)cc32)CC1`: the survivor count runs as follows: (dose: 25.0 mg/kg/injection, schedule: Q01DX009 (ip), vehicle: saline) 9 of 10; under setting [9], 7 of 10.
As to `CN(Cc1cnc2nc(N)nc(N)c2n1)c1c(Cl)cc(C(=O)NC(CCC(=O)O)C(=O)O)cc1Cl` (stereo not given), the survivor count is, setting by setting: under setting [9], 10 of 10; (dose: 100.0 mg/kg/injection, schedule: Q01DX009 (ip), vehicle: saline) 10 of 10.
As to `O=[Te]=O`, under “dose: 12.5 mg/kg/injection, schedule: Q01DX009 (ip), vehicle: saline”, the survivor count was 8 of 10.

These data come from PubChem BioAssay AID200 (DTP/NCI, 2004).
